Oligonucleotides screened, 5′ to 3′:
SAM-II: SAM-II riboswitch RNA pseudoknot, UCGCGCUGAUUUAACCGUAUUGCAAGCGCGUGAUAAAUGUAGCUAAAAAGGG. About 200 hits among about 21,000 compounds.
TPP: TPP riboswitch RNA three-way junction, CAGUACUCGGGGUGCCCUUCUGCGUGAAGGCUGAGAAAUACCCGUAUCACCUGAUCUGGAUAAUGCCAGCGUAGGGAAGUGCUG. About 160 hits among about 24,000 compounds.
PreQ1: PreQ1 riboswitch RNA pseudoknot, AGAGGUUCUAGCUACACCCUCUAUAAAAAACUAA. From B. subtilis. About 170 hits among about 24,000 compounds.

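The test is a small-molecule microarray: each compound is printed twice on a reactive slide, and binding shows as fluorescence of the labelled oligonucleotide after washing. The data file lists only calls. An earlier report of the laboratory on the PreQ1, TPP and SAM-II riboswitches (doi:10.1038/s41467-019-09493-3) used 1 µM RNA for 2 h and required a mean Z-score above 3 (spot signal-to-noise against the whole library), a score well above that on a control array, and duplicate spots agreeing (coefficient of variation under 100); it then also set aside compounds that hit other targets, which this list keeps. The cut-offs behind this list may differ. The calls come from the array alone, and fixing a compound to the slide can hide its binding.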
Key: hit = hit, no hit = tested without a hit.
The compounds are a random part of those screened.
A target missing from an entry has no call listed here.

Calls for CCCCn1c(N)c(C#N)c2nc3ccccc3nc21 are SAM-II: no hit; TPP: no hit; PreQ1: no hit.
Calls for COc1ccccc1C(CCNCc1ccc(OC(C)C)cc1)c1ccc2c(c1)OCO2 (stereo unspecified) are SAM-II: no hit; TPP: no hit; PreQ1: no hit.
Calls for Cc1cc(NCc2cccnc2)n2nc(C(F)(F)F)nc2n1 are TPP: no hit; PreQ1: no hit.
Calls for CCCC1Cc2nc3sc(C(=O)OCC)c(N)c3cc2CO1 (stereo unspecified) are SAM-II: no hit; TPP: no hit; PreQ1: no hit.
Calls for CC(C)Cc1nc(C#N)c(NCC(c2cccs2)N2CCCCC2)o1 (stereo unspecified) are SAM-II: no hit; TPP: no hit; PreQ1: no hit.
Calls for COc1ccc(CCNCc2cccc(C(F)(F)F)c2)cc1 are SAM-II: no hit; TPP: no hit; PreQ1: no hit.
Calls for O=C(O)c1ccc(-c2ccc(CNCCc3ccc(F)cc3)o2)cc1 are SAM-II: no hit; TPP: no hit; PreQ1: no hit.
Calls for c1ccc2[nH]c(-c3ccncc3)nc2c1 are SAM-II: no hit; TPP: no hit; PreQ1: no hit.
Calls for O=[N+]([O-])c1ccc(-c2ncc(-c3ccc(Br)cc3)o2)cc1 are SAM-II: no hit; TPP: no hit; PreQ1: no hit.
Calls for C=CCOc1c(Cl)cc(C2C(C#N)=C(N)Oc3cc4c(cc32)OCO4)cc1OCC (stereo unspecified) are SAM-II: no hit; TPP: no hit; PreQ1: no hit.
Calls for COc1ccc(S(=O)(=O)c2cnc3ccc(F)cc3c2Nc2cccc(OC)c2)cc1 are TPP: no hit; PreQ1: no hit.
Calls for Cc1nc2ncccn2c1-c1csc(Nc2ccc(Cl)cc2)n1 are SAM-II: no hit; TPP: no hit; PreQ1: no hit.
Calls for CN(C)C(=O)c1ccc2c(c1)N(C)C(CC(=O)Nc1ccc(N)nc1)CO2 (stereo unspecified) are SAM-II: no hit; TPP: no hit; PreQ1: no hit.
Calls for COc1ccc2cc3c(N)nn(C(=O)Cc4ccc(Cl)cc4)c3nc2c1 are SAM-II: no hit; TPP: no hit; PreQ1: no hit.
Calls for CNC(=O)[C@@H]1C[C@H](N)CN1C(=O)c1c(-c2ccccc2)ccnc1C are SAM-II: no hit; TPP: no hit; PreQ1: no hit.
Calls for C(=N\n1cnnc1)/c1ccc2c(c1)CCC2 are SAM-II: no hit; TPP: no hit; PreQ1: no hit.
Calls for CNCCCOc1cccc(-c2ccc(C(=O)O)cc2)c1 are SAM-II: no hit; TPP: no hit; PreQ1: no hit.
Calls for COc1cccc(N2CC(c3nc4ccccc4n3CC(O)COc3ccccc3C)CC2=O)c1 (stereo unspecified) are TPP: no hit; PreQ1: no hit.
Calls for N#CC1=C(N)Oc2c(oc(CO)cc2=O)C1c1ccc(Cl)cc1 (stereo unspecified) are SAM-II: no hit; TPP: no hit; PreQ1: no hit.
Calls for CC(C)NC(=O)c1ccc(-n2cc(CCO)cn2)o1 are SAM-II: no hit; TPP: no hit; PreQ1: no hit.
Calls for CCc1ccc(CNc2ncc(-c3ccc(OC)cc3)n2C)cc1 are SAM-II: no hit; TPP: no hit; PreQ1: no hit.
Calls for Cc1ccsc1CNc1cccc(C(=O)N[C@H]2COC[C@@H]2N2CCOCC2)c1 are SAM-II: no hit; TPP: no hit; PreQ1: no hit.
Calls for Cc1ccc(-c2csc(N)n2)cc1 are SAM-II: no hit; TPP: no hit; PreQ1: no hit.
Calls for Cc1ccc(-c2ccccc2CCN)c2cccnc12 are SAM-II: hit; TPP: no hit; PreQ1: no hit.
Calls for O=C(C1CC1)N1CCN(CCCc2cccnc2)CC(O)C1 (stereo unspecified) are SAM-II: no hit; TPP: no hit; PreQ1: no hit.
Calls for O=C(c1coc(COc2ccc3c(c2)OCO3)n1)N1[C@@H]2CC[C@H]1C[C@@H](O)C2 are SAM-II: no hit; TPP: no hit; PreQ1: no hit.
Calls for CCOC(=O)c1sc2nc(C)cc(C)c2c1N are SAM-II: no hit; TPP: no hit; PreQ1: no hit.
Calls for O=c1oc2c(O)c(O)cc3c(=O)oc4c(O)c(O)cc1c4c23 are SAM-II: no hit; TPP: no hit; PreQ1: no hit.
Calls for CN1C[C@H](NC(=O)CCCC(=O)Nc2cccc(Cl)c2)C[C@H]1CO are SAM-II: no hit; TPP: no hit; PreQ1: no hit.
Calls for Cc1ccc2c(CNCc3ccccc3F)c(C(=O)O)[nH]c2c1 are TPP: no hit; PreQ1: no hit.
Calls for CCOc1ccc(N2C(=O)c3cccnc3C2Nc2ccc(F)cc2F)cc1 (stereo unspecified) are SAM-II: no hit; TPP: no hit; PreQ1: no hit.
Calls for CCn1c(N)nc2cc(C(=O)NCc3coc(-c4ccccc4)n3)cnc21 are SAM-II: no hit; TPP: no hit; PreQ1: no hit.
Calls for Cc1nc(CCNC2CCN(c3ncccn3)CC2)sc1C are SAM-II: no hit; TPP: no hit; PreQ1: no hit.
Calls for COC(=O)c1cccc(N2CC(=O)C(c3nc4ccccc4s3)=C2N)c1 are TPP: no hit; PreQ1: no hit.
Calls for O=C1NC2(CCNCC2)C(=O)N1CC(=O)N1CCOc2ccccc21 are SAM-II: no hit; TPP: no hit; PreQ1: no hit.

For reference, 3 entries once more:

{"compound": "CNCCCOc1cccc(-c2ccc(C(=O)O)cc2)c1", "SAM-II": "no hit", "TPP": "no hit", "PreQ1": "no hit"}
{"compound": "C(=N\\n1cnnc1)/c1ccc2c(c1)CCC2", "SAM-II": "no hit", "TPP": "no hit", "PreQ1": "no hit"}
{"compound": "CN(C)C(=O)c1ccc2c(c1)N(C)C(CC(=O)Nc1ccc(N)nc1)CO2", "stereo": "stereo unspecified", "SAM-II": "no hit", "TPP": "no hit", "PreQ1": "no hit"}

Calls as published in the ROBIN set (doi:10.1002/anie.202211358).